# Measured values reported in the supplement of paper PMC8728848.
# The list shows a part of the results.
# Legend:
# Test in all cases: glycan array binding signal (z-score within array); higher = stronger binding
# Conditions in all cases: glycan notation: IUPAC condensed, linker removed
# [1] = target: Neu5Ac(a2-6)GlcNAc(b1-4)GlcNAc(b1-4)GlcNAc
# How it was run: (§1)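 The binding signal is a Z-score computed within each array and averaged over linkers. Arrays of the same protein sequence at different concentrations or buffers were also averaged together. Data originate from 3228 arrays in the Consortium for Functional Glycomics database, kept only where the protein sequence was available.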
# Neu5Ac(a2-8)Neu5Ac = target: Neu5Ac(a2-8)Neu5Ac
# How it was run: as §1
# [2] = target: Neu5Ac(a2-8)Neu5Ac(a2-3)Gal(b1-3)GalNAc(b1-4)[Neu5Ac(a2-3)]Gal(b1-4)Glc
# How it was run: as §1
# [3] = target: Neu5Ac(a2-8)Neu5Ac(a2-3)Gal(b1-3)GalNAc(b1-4)[Neu5Ac(a2-8)Neu5Ac(a2-3)]Gal(b1-4)Glc
# How it was run: as §1
# [4] = target: Neu5Ac(a2-8)Neu5Ac(a2-3)Gal(b1-4)Glc
# How it was run: as §1
# [5] = target: Neu5Ac(a2-8)Neu5Ac(a2-3)Gal(b1-4)GlcNAc
# How it was run: as §1
# [6] = target: Neu5Ac(a2-8)Neu5Ac(a2-3)[Gal(b1-3)GalNAc(b1-4)]Gal(b1-4)Glc
# How it was run: as §1
# [7] = target: Neu5Ac(a2-8)Neu5Ac(a2-3)[GalNAc(b1-4)]Gal(b1-4)Glc
# How it was run: as §1
# [8] = target: Neu5Ac(a2-8)Neu5Ac(a2-8)Neu5Ac
# How it was run: as §1
# [9] = target: Neu5Ac(a2-8)Neu5Ac(a2-8)Neu5Ac(a2-3)Gal(b1-4)Glc
# How it was run: as §1
# [10] = target: Neu5Ac(a2-8)Neu5Ac(a2-8)Neu5Ac(a2-3)[Gal(b1-3)GalNAc(b1-4)]Gal(b1-4)Glc
# How it was run: as §1
# [11] = target: Neu5Ac(a2-8)Neu5Ac(a2-8)Neu5Ac(a2-3)[GalNAc(b1-4)]Gal(b1-4)Glc
# How it was run: as §1
# [12] = target: Neu5Ac(a2-8)Neu5Ac(a2-8)Neu5Ac(a2-8)Neu5Ac(a2-3)[GalNAc(b1-4)]Gal(b1-4)Glc
# How it was run: as §1
# [13] = target: Neu5Ac(a2-8)Neu5Gc(a2-3)Gal(b1-4)GlcNAc
# How it was run: as §1
# [14] = target: Neu5Ac(b2-6)Gal(b1-4)GlcNAc
# How it was run: as §1
# Neu5Ac(b2-6)GalNAc = target: Neu5Ac(b2-6)GalNAc
# How it was run: as §1
# [15] = target: Neu5Ac9Ac(a2-3)Gal(b1-4)GlcNAc
# How it was run: as §1
# [16] = target: Neu5Ac9Ac(a2-6)Gal(b1-4)GlcNAc
# How it was run: as §1
# [17] = target: Neu5Gc(a2-3)Gal(b1-3)GlcNAc
# How it was run: as §1
# [18] = target: Neu5Gc(a2-3)Gal(b1-3)[Fuc(a1-4)]GlcNAc
# How it was run: as §1
# Neu5Gc(a2-3)Gal(b1-4)Glc = target: Neu5Gc(a2-3)Gal(b1-4)Glc
# How it was run: as §1
# [19] = target: Neu5Gc(a2-3)Gal(b1-4)GlcNAc
# How it was run: as §1
# [20] = target: Neu5Gc(a2-3)Gal(b1-4)GlcNAc(b1-3)Gal(b1-4)GlcNAc(b1-2)Man(a1-3)[Neu5Gc(a2-3)Gal(b1-4)GlcNAc(b1-3)Gal(b1-4)GlcNAc(b1-2)Man(a1-6)]Man(b1-4)GlcNAc(b1-4)GlcNAc
# How it was run: as §1
# [21] = target: Neu5Gc(a2-3)Gal(b1-4)[Fuc(a1-3)]GlcNAc
# How it was run: as §1
# [22] = target: Neu5Gc(a2-6)Gal(b1-4)GlcNAc
# How it was run: as §1
# Neu5Gc(a2-6)GalNAc = target: Neu5Gc(a2-6)GalNAc
# How it was run: as §1
# [23] = target: Neu5Gc(a2-8)Neu5Ac(a2-3)Gal(b1-4)GlcNAc
# How it was run: as §1
# [24] = target: Neu5Gc(a2-8)Neu5Gc(a2-3)Gal(b1-4)GlcNAc
# How it was run: as §1
# [25] = target: Neu5Gc(a2-8)Neu5Gc(a2-3)Gal(b1-4)GlcNAc(b1-3)Gal(b1-4)GlcNAc
# How it was run: as §1
# [26] = target: Neu5Gc(a2-8)Neu5Gc(a2-6)Gal(b1-4)GlcNAc
# How it was run: as §1
# [27] = target: Neu5Gc(b2-6)Gal(b1-4)GlcNAc
# How it was run: as §1
binder,measurement,setting,value
"Protein L(B1-B4) (Finegoldia magna), Q51912 (protein) KEETPETPETDSEEEVTIKANLIFANGSTQTAEFKGTFEKATSEAYAYADTLKKDNGEYTVDVADKGYTLNIKFAGKEKTPEEPKEEVTIKANLIYADGKTQTAEFKGTFEEATAEAYRYADALKKDNGEYTVDVADKGYTLNIKFAGKEKTPEEPKEEVTIKANLIYADGKTQTAEFKGTFEEATAEAYRYADLLAKENGKYTVDVADKGYTLNIKFAGKEKTPEEPKEEVTIKANLIYADGKTQTAEFKGTFAEATAEAYRYADLLAKENGKYTADLEDGGYTINIRFAG",glycan array binding signal (z-score),[1],-0.463
same,glycan array binding signal (z-score),Neu5Ac(a2-8)Neu5Ac,-0.503
same,glycan array binding signal (z-score),[2],-0.525
same,glycan array binding signal (z-score),[3],-0.215
same,glycan array binding signal (z-score),[4],-1.15
same,glycan array binding signal (z-score),[5],-0.602
same,glycan array binding signal (z-score),[6],0.211
same,glycan array binding signal (z-score),[7],0.374
same,glycan array binding signal (z-score),[8],-0.413
same,glycan array binding signal (z-score),[9],0.487
same,glycan array binding signal (z-score),[10],-0.773
same,glycan array binding signal (z-score),[11],0.34
same,glycan array binding signal (z-score),[12],0.128
same,glycan array binding signal (z-score),[13],-0.811
same,glycan array binding signal (z-score),[14],-0.79
same,glycan array binding signal (z-score),Neu5Ac(b2-6)GalNAc,-0.395
same,glycan array binding signal (z-score),[15],0.223
same,glycan array binding signal (z-score),[16],-0.845
same,glycan array binding signal (z-score),[17],-0.672
same,glycan array binding signal (z-score),[18],0.266
same,glycan array binding signal (z-score),Neu5Gc(a2-3)Gal(b1-4)Glc,-0.735
same,glycan array binding signal (z-score),[19],-0.106
same,glycan array binding signal (z-score),[20],0.429
same,glycan array binding signal (z-score),[21],-0.618
same,glycan array binding signal (z-score),[22],-0.063
same,glycan array binding signal (z-score),Neu5Gc(a2-6)GalNAc,-0.808
same,glycan array binding signal (z-score),[23],-0.512
same,glycan array binding signal (z-score),[24],-1.03
same,glycan array binding signal (z-score),[25],-0.983
same,glycan array binding signal (z-score),[26],-1.09
same,glycan array binding signal (z-score),[27],-0.305

# Two entries from above, set out differently.
binder	measurement	setting	value
Protein L(B1-B4) (Finegoldia magna), Q51912 (protein) KEETPETPETDSEEEVTIKANLIFANGSTQTAEFKGTFEKATSEAYAYADTLKKDNGEYTVDVADKGYTLNIKFAGKEKTPEEPKEEVTIKANLIYADGKTQTAEFKGTFEEATAEAYRYADALKKDNGEYTVDVADKGYTLNIKFAGKEKTPEEPKEEVTIKANLIYADGKTQTAEFKGTFEEATAEAYRYADLLAKENGKYTVDVADKGYTLNIKFAGKEKTPEEPKEEVTIKANLIYADGKTQTAEFKGTFAEATAEAYRYADLLAKENGKYTADLEDGGYTINIRFAG	glycan array binding signal (z-score)	Neu5Ac(b2-6)GalNAc	-0.395
same	glycan array binding signal (z-score)	[15]	0.223
